Data published in PMC10287905, “Proper RPA acetylation promotes accurate DNA replication and repair” (Nucleic Acids Research, 2023).
No constants are given. Whether binding was seen depends on the method and setting. Binding seen in cells or lysates may run through a third protein. Some results given as binding are weak or reduced against the parent protein; the word gives no strength.

Protein sequences, listed by entry. Tags and fused reporters are not part of them. Lines headed by an entry give the natural chain unless they say otherwise; changes in a name come on top. Chains listed by the source or under a name are the forms on record and can include a tag or linker.
UniProt Q06142: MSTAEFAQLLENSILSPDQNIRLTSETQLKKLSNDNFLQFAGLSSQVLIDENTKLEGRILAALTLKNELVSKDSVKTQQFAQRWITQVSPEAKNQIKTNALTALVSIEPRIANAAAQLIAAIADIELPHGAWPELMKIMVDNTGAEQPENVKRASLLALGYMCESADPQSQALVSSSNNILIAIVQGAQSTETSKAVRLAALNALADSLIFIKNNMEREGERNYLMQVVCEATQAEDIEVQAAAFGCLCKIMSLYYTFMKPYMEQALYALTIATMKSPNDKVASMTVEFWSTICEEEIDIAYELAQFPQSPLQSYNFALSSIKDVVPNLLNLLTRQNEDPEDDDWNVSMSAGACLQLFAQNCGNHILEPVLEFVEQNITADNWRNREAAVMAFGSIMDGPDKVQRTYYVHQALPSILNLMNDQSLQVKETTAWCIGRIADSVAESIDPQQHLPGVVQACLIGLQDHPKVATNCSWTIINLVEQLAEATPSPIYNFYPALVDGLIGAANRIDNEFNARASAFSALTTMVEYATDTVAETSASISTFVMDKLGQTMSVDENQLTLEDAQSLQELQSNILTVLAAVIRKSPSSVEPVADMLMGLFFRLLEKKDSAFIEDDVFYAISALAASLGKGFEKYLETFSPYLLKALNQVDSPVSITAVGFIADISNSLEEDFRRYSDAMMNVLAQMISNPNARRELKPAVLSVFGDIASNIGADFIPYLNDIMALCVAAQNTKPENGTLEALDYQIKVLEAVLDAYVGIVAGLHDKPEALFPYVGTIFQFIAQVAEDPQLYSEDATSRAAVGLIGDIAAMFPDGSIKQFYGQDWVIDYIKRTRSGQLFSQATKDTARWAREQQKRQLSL
UniProt P22336: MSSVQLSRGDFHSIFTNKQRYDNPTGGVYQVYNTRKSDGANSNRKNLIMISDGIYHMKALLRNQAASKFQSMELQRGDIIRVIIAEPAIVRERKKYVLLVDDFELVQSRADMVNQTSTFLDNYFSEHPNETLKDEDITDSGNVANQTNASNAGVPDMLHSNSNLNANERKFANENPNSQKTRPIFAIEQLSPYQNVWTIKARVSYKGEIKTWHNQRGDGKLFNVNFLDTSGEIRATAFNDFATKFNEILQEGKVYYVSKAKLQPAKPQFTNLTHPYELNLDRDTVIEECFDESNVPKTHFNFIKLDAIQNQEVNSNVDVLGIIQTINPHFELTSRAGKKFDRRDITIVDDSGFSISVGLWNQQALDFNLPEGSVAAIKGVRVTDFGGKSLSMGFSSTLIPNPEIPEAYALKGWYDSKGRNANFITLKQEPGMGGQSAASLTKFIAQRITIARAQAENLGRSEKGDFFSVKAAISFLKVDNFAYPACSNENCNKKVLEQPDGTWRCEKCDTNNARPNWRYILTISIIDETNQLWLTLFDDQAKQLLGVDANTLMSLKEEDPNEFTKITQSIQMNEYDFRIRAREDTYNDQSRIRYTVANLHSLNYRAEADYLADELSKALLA
Rfa1-4KR-3xFLAG (P22336, form named): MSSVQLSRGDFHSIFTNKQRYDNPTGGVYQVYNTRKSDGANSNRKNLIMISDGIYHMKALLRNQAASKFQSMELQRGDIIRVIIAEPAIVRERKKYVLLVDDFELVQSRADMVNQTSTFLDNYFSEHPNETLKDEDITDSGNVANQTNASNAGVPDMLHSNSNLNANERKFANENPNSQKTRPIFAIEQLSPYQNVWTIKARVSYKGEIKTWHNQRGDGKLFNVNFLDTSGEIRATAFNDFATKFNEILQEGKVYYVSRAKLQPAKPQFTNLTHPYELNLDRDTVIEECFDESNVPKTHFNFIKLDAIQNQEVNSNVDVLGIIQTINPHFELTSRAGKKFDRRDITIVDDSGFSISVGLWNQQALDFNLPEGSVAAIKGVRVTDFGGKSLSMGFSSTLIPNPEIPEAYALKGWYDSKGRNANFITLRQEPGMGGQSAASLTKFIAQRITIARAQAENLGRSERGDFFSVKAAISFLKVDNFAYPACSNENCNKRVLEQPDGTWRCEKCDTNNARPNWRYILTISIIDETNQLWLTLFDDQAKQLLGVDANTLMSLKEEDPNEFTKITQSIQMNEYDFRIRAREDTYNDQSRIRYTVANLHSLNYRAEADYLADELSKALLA
Rfa1-4KQ-3xFLAG (P22336, form named): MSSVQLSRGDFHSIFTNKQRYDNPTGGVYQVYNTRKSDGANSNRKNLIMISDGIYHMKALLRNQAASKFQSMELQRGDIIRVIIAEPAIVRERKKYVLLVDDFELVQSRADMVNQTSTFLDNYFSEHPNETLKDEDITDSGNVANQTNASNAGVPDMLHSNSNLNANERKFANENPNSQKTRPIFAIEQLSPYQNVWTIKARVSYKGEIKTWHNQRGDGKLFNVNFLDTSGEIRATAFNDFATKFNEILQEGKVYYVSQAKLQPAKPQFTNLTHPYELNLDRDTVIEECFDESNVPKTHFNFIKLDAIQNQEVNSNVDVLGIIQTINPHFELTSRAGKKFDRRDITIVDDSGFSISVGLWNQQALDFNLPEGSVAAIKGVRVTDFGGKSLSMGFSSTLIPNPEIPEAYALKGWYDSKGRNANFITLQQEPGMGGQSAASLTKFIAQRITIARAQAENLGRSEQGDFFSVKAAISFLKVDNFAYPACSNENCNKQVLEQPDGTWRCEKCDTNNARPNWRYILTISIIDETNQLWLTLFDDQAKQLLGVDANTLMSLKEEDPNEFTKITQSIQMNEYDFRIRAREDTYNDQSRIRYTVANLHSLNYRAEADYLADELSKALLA
UniProt P26755: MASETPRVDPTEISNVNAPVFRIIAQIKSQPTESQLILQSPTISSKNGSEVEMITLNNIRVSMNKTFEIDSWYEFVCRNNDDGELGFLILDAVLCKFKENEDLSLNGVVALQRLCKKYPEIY
UniProt P26754: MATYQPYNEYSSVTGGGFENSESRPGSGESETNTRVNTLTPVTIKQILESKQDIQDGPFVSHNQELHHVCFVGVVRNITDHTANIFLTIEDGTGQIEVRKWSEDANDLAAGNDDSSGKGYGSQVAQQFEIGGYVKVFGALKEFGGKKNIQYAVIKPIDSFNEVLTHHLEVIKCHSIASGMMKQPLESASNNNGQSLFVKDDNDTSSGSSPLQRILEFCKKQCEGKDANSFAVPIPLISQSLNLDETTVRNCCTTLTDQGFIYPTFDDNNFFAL

Experiments:
Assay in all cases: co-IP; yeast lysates (cells with or without 0.1% MMS for 1 h), digested with UltraNuclease; anti-FLAG or anti-HA antibody, protein G-sepharose, 4°C; washed with IP lysis buffer supplemented with 140 mM NaCl; Western blot
[1] = molecular target: Kap95-3xHA (yeast) (UniProt Q06142)
[2] = molecular target: T1, Rtt105-3xHA (yeast) (UniProt P40063)
T1 sequence: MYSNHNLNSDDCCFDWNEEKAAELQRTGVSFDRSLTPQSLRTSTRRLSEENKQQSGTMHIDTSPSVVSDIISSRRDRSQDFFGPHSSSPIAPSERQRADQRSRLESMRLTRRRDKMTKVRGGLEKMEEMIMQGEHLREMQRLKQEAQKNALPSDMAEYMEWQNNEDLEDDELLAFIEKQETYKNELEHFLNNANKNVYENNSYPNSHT

[3] = molecular target: Rfa1-3xFLAG (wild type) (yeast) (UniProt P22336)
[4] = molecular target: Rfa1-4KR-3xFLAG (yeast) (UniProt P22336)
[5] = molecular target: Rfa1-4KQ-3xFLAG (yeast) (UniProt P22336)

Row | Substance | binding [1] | binding [2] | binding [3] | binding [4] | binding [5]
1 | Rfa1-4KR-3xFLAG (from UniProt P22336 1-621) | binds | binds |  |  | 
2 | Rfa3 (from UniProt P26755 1-122) |  |  | binds | binds | binds
3 | Rfa2 (from UniProt P26754 1-273) |  |  | binds | binds | binds

More lines, now with the values ahead:

Row | binding [1] | binding [2] | binding [3] | binding [4] | binding [5] | Substance
4 | binds | binds |  |  |  | Rfa1-4KQ-3xFLAG (from UniProt P22336 1-621)
5 | binds | binds |  |  |  | Rfa1-3xFLAG (wild type) (from UniProt P22336 1-621)
